The record followed here is PMC6208443, “Arabidopsis AGDP1 links H3K9me2 to DNA methylation in heterochromatin” (Nature Communications, 2018).

These are yes or no findings as the source states them, for the method shown. In cells and extracts the contact can be indirect. These calls come from enrichment with a bait or labelling near it, and not all partners need be listed. No binding means not detected with the bait. Tags and fused reporters may be left off the sequences shown.

In the assay the target is T1, Flag-AGDP1 (Arabidopsis thaliana) (UniProt Q500V5).
T1 sequence: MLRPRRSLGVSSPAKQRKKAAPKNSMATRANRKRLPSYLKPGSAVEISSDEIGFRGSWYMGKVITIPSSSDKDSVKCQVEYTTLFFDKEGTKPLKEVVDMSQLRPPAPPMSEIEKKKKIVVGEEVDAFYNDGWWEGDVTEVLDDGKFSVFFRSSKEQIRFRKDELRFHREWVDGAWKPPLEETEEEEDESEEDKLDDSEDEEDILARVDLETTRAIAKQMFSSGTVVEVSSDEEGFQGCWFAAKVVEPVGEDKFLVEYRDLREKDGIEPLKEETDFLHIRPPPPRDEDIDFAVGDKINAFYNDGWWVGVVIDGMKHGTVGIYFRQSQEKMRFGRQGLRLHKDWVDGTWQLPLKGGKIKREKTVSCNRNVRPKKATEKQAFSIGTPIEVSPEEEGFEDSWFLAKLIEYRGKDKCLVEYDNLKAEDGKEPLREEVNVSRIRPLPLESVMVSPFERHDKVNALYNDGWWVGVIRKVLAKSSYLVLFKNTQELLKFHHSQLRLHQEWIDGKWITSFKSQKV
The assay is described as follows: affinity purification with mass spectrometry; immunoprecipitation of Flag-AGDP1 from pAGDP1-Flag-AGDP1 transgenic plants followed by mass spectrometry (IP-MS), four replicates.

B1: SUVH5 (protein, UniProt O82175 1-794)
chain: MVHSESSILSSLRGGDGGGIPCSKDELAINGSYTDPMGRRKSKRFKVAAESEFSPDFGSITRQLRSRRMQKEFTVETYETRNVSDVCVLSSQADVELIPGEIVAERDSFKSVDCNDMSVGLTEGAESLGVNMQEPMKDRNMPENTSEQNMVEVHPPSISLPEEDMMGSVCRKSITGTKELHGRTISVGRDLSPNMGSKFSKNGKTAKRSISVEEENLVLEKSDSGDHLGPSPEVLELEKSEVWIITDKGVVMPSPVKPSEKRNGDYGEGSMRKNSERVALDKKRLASKFRLSNGGLPSCSSSGDSARYKVKETMRLFHETCKKIMQEEEARPRKRDGGNFKVVCEASKILKSKGKNLYSGTQIIGTVPGVEVGDEFQYRMELNLLGIHRPSQSGIDYMKDDGGELVATSIVSSGGYNDVLDNSDVLIYTGQGGNVGKKKNNEPPKDQQLVTGNLALKNSINKKNPVRVIRGIKNTTLQSSVVAKNYVYDGLYLVEEYWEETGSHGKLVFKFKLRRIPGQPELPWKEVAKSKKSEFRDGLCNVDITEGKETLPICAVNNLDDEKPPPFIYTAKMIYPDWCRPIPPKSCGCTNGCSKSKNCACIVKNGGKIPYYDGAIVEIKPLVYECGPHCKCPPSCNMRVSQHGIKIKLEIFKTESRGWGVRSLESIPIGSFICEYAGELLEDKQAESLTGKDEYLFDLGDEDDPFTINAAQKGNIGRFINHSCSPNLYAQDVLYDHEEIRIPHIMFFALDNIPPLQELSYDYNYKIDQVYDSNGNIKKKFCYCGSAECSGRLY
For the molecule B1, the binding entry is given as “no binding”.

B2: SUVH6 (protein, UniProt Q8VZ17 1-790)
chain: MEMGVMENLMVHTEISKVKSQSNGEVEKRGVSVLENGGVCKLDRMSGLKFKRRKVFAVRDFPPGCGSRAMEVKIACENGNVVEDVKVVESLVKEEESLGQRDASENVSDIRMAEPVEVQPLRICLPGGDVVRDLSVTAGDECSNSEQIVAGSGVSSSSGTENIVRDIVVYADESSLGMDNLDQTQPLEIEMSDVAVAKPRLVAGRKKAKKGIACHSSLKVVSREFGEGSRKKKSKKNLYWRDRESLDSPEQLRILGVGTSSGSSSGDSSRNKVKETLRLFHGVCRKILQEDEAKPEDQRRKGKGLRIDFEASTILKRNGKFLNSGVHILGEVPGVEVGDEFQYRMELNILGIHKPSQAGIDYMKYGKAKVATSIVASGGYDDHLDNSDVLTYTGQGGNVMQVKKKGEELKEPEDQKLITGNLALATSIEKQTPVRVIRGKHKSTHDKSKGGNYVYDGLYLVEKYWQQVGSHGMNVFKFQLRRIPGQPELSWVEVKKSKSKYREGLCKLDISEGKEQSPISAVNEIDDEKPPLFTYTVKLIYPDWCRPVPPKSCCCTTRCTEAEARVCACVEKNGGEIPYNFDGAIVGAKPTIYECGPLCKCPSSCYLRVTQHGIKLPLEIFKTKSRGWGVRCLKSIPIGSFICEYVGELLEDSEAERRIGNDEYLFDIGNRYDNSLAQGMSELMLGTQAGRSMAEGDESSGFTIDAASKGNVGRFINHSCSPNLYAQNVLYDHEDSRIPHVMFFAQDNIPPLQELCYDYNYALDQVRDSKGNIKQKPCFCGAAVCRRRLY
As for B2, the binding result is “no binding”.

B3: CMT3 (protein, UniProt Q94F88 1-839)
chain: MAPKRKRPATKDDTTKSIPKPKKRAPKRAKTVKEEPVTVVEEGEKHVARFLDEPIPESEAKSTWPDRYKPIEVQPPKASSRKKTKDDEKVEIIRARCHYRRAIVDERQIYELNDDAYVQSGEGKDPFICKIIEMFEGANGKLYFTARWFYRPSDTVMKEFEILIKKKRVFFSEIQDTNELGLLEKKLNILMIPLNENTKETIPATENCDFFCDMNYFLPYDTFEAIQQETMMAISESSTISSDTDIREGAAAISEIGECSQETEGHKKATLLDLYSGCGAMSTGLCMGAQLSGLNLVTKWAVDMNAHACKSLQHNHPETNVRNMTAEDFLFLLKEWEKLCIHFSLRNSPNSEEYANLHGLNNVEDNEDVSEESENEDDGEVFTVDKIVGISFGVPKKLLKRGLYLKVRWLNYDDSHDTWEPIEGLSNCRGKIEEFVKLGYKSGILPLPGGVDVVCGGPPCQGISGHNRFRNLLDPLEDQKNKQLLVYMNIVEYLKPKFVLMENVVDMLKMAKGYLARFAVGRLLQMNYQVRNGMMAAGAYGLAQFRLRFFLWGALPSEIIPQFPLPTHDLVHRGNIVKEFQGNIVAYDEGHTVKLADKLLLKDVISDLPAVANSEKRDEITYDKDPTTPFQKFIRLRKDEASGSQSKSKSKKHVLYDHHPLNLNINDYERVCQVPKRKGANFRDFPGVIVGPGNVVKLEEGKERVKLESGKTLVPDYALTYVDGKSCKPFGRLWWDEIVPTVVTRAEPHNQVIIHPEQNRVLSIRENARLQGFPDDYKLFGPPKQKYIQVGNAVAVPVAKALGYALGTAFQGLAVGKDPLLTLPEGFAFMKPTLPSELA
As for B3, the binding result was “no binding”.

B4: SUVH4 (protein, UniProt Q8GZB6 1-624)
chain: MAGKRKRANAPDQTERRSSVRVQKVRQKALDEKARLVQERVKLLSDRKSEICVDDTELHEKEEENVDGSPKRRSPPKLTAMQKGKQKLSVSLNGKDVNLEPHLKVTKCLRLFNKQYLLCVQAKLSRPDLKGVTEMIKAKAILYPRKIIGDLPGIDVGHRFFSRAEMCAVGFHNHWLNGIDYMSMEYEKEYSNYKLPLAVSIVMSGQYEDDLDNADTVTYTGQGGHNLTGNKRQIKDQLLERGNLALKHCCEYNVPVRVTRGHNCKSSYTKRVYTYDGLYKVEKFWAQKGVSGFTVYKYRLKRLEGQPELTTDQVNFVAGRIPTSTSEIEGLVCEDISGGLEFKGIPATNRVDDSPVSPTSGFTYIKSLIIEPNVIIPKSSTGCNCRGSCTDSKKCACAKLNGGNFPYVDLNDGRLIESRDVVFECGPHCGCGPKCVNRTSQKRLRFNLEVFRSAKKGWAVRSWEYIPAGSPVCEYIGVVRRTADVDTISDNEYIFEIDCQQTMQGLGGRQRRLRDVAVPMNNGVSQSSEDENAPEFCIDAGSTGNFARFINHSCEPNLFVQCVLSSHQDIRLARVVLFAADNISPMQELTYDYGYALDSVHGPDGKVKQLACYCGALNCRKRLY
As for B4, the binding entry was “no binding”.

B5: CMT2 (protein, UniProt Q94F87 1-1295)
chain: MLSPAKCESEEAQAPLDLHSSSRSEPECLSLVLWCPNPEEAAPSSTRELIKLPDNGEMSLRRSTTLNCNSPEENGGEGRVSQRKSSRGKSQPLLMLTNGCQLRRSPRFRALHANFDNVCSVPVTKGGVSQRKFSRGKSQPLLTLTNGCQLRRSPRFRAVDGNFDSVCSVPVTGKFGSRKRKSNSALDKKESSDSEGLTFKDIAVIAKSLEMEIISECQYKNNVAEGRSRLQDPAKRKVDSDTLLYSSINSSKQSLGSNKRMRRSQRFMKGTENEGEENLGKSKGKGMSLASCSFRRSTRLSGTVETGNTETLNRRKDCGPALCGAEQVRGTERLVQISKKDHCCEAMKKCEGDGLVSSKQELLVFPSGCIKKTVNGCRDRTLGKPRSSGLNTDDIHTSSLKISKNDTSNGLTMTTALVEQDAMESLLQGKTSACGAADKGKTREMHVNSTVIYLSDSDEPSSIEYLNGDNLTQVESGSALSSGGNEGIVSLDLNNPTKSTKRKGKRVTRTAVQEQNKRSICFFIGEPLSCEEAQERWRWRYELKERKSKSRGQQSEDDEDKIVANVECHYSQAKVDGHTFSLGDFAYIKGEEEETHVGQIVEFFKTTDGESYFRVQWFYRATDTIMERQATNHDKRRLFYSTVMNDNPVDCLISKVTVLQVSPRVGLKPNSIKSDYYFDMEYCVEYSTFQTLRNPKTSENKLECCADVVPTESTESILKKKSFSGELPVLDLYSGCGGMSTGLSLGAKISGVDVVTKWAVDQNTAACKSLKLNHPNTQVRNDAAGDFLQLLKEWDKLCKRYVFNNDQRTDTLRSVNSTKETSGSSSSSDDDSDSEEYEVEKLVDICFGDHDKTGKNGLKFKVHWKGYRSDEDTWELAEELSNCQDAIREFVTSGFKSKILPLPGRVGVICGGPPCQGISGYNRHRNVDSPLNDERNQQIIVFMDIVEYLKPSYVLMENVVDILRMDKGSLGRYALSRLVNMRYQARLGIMTAGCYGLSQFRSRVFMWGAVPNKNLPPFPLPTHDVIVRYGLPLEFERNVVAYAEGQPRKLEKALVLKDAISDLPHVSNDEDREKLPYESLPKTDFQRYIRSTKRDLTGSAIDNCNKRTMLLHDHRPFHINEDDYARVCQIPKRKGANFRDLPGLIVRNNTVCRDPSMEPVILPSGKPLVPGYVFTFQQGKSKRPFARLWWDETVPTVLTVPTCHSQALLHPEQDRVLTIRESARLQGFPDYFQFCGTIKERYCQIGNAVAVSVSRALGYSLGMAFRGLARDEHLIKLPQNFSHSTYPQLQETIPH
Consider B5, for which the binding result is “no binding”.
